{"source": "patent US12059418B2", "about": "“Plasmodial surface anion channel inhibitors for the treatment or prevention of malaria” (The United States of America, as represented by the …, priority 2011, dated 2024)", "key": {"[1]": {"test_system": "PSAC", "assay": "Transport inhibition assay, osmotic lysis of infected cells in sorbitol (Table 5)", "assay_type": "cell-based, P. falciparum", "details": "37° C., read-out: Transport inhibition K0.5"}, "[2]": {"test_system": "P. falciparum", "assay_type": "cell-based", "details": "RPMI growth IC50 / PLM growth IC50"}}, "data": [{"compound": "NS(=O)(=O)c1cc(C(=O)O)c(NCc2ccco2)cc1Cl", "note": "[furosemide, reference compound]", "values": [{"measurement": "IC50", "setting": "[1]", "value": 2700, "unit": "nM"}, {"measurement": "IC50 ratio", "setting": "[2]", "value": ">9.5"}]}]}
